Experimental data reported in publication PMC7592556.
No constants are given. Whether binding was seen depends on the method and setting. In cells and extracts the contact can be indirect. A yes stands for co-enrichment or nearness to the bait. Other partners may have been found.

Protein sequences, listed by entry. Tags and fused reporters are not part of them. Residues count along the entry.
His6-SUMO fusion protein of the complete Shank3 N-terminus (SPN-Ank, residues 1-348) (Q9JLU4, residues 1-348): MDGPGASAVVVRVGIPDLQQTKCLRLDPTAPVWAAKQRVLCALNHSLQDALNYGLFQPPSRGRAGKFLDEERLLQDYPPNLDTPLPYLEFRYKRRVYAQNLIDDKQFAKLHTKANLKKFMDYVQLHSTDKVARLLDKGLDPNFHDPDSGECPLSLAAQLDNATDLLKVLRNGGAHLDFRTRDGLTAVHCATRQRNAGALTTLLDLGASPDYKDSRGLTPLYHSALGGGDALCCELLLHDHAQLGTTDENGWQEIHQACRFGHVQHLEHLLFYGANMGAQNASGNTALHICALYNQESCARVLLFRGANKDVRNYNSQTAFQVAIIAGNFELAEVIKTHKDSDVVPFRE
His6-SUMO fusion protein of the Shank3 Ank repeats (residues 99-348) (Q9JLU4, residues 99-348): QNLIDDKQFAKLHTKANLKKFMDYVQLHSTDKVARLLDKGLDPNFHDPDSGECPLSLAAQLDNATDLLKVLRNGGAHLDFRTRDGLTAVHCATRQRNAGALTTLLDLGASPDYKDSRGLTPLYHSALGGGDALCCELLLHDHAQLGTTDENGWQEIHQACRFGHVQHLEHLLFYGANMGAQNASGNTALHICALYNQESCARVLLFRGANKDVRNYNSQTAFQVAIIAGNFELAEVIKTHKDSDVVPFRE

Columns and labels:
[1] = target: His6-SUMO fusion protein of the Shank3 Ank repeats (residues 99-348) (rat) (UniProt Q9JLU4); test: affinity purification with mass spectrometry; His6-SUMO-Shank3 fragments (SPN-Ank or Ank only) coupled to NHS-Sepharose; mouse forebrain PSD fraction solubilised in DOC buffer (50 mM Tris pH 9.0, 1% Na-deoxycholate); 2 h, 5 washes; LC-MS/MS, LFQ intensities compared with a SUMO matrix; four purifications (two SPN-Ank, two Ank only); only the target purified
[2] = target: His6-SUMO fusion protein of the complete Shank3 N-terminus (SPN-Ank, residues 1-348) (rat) (UniProt Q9JLU4); test: as above

Row | Binder | binding [1] | binding [2]
1 | Disks large homolog 3 (protein, UniProt P70175 1-849) MHKHQHCCKCPECYEVTRLAALRRLEPPGYGDWQVPDPYGPSGGNGASSGYGGYSSQTLPSQAGATPTPRTKAKLIPTGRDVGPVPPKPVPGKSTPKLNGSGPGWWPECTCTNRDWYEQASPAPLLVNPEALEPSLSVNGSDGMFKYEEIVLERGNSGLGFSIAGGIDNPHVPDDPGIFITKIIPGGAAAMDGRLGVNDCVLRVNEVDVSEVVHSRAVEALKEAGPVVRLVVRRRQPPPETIMEVNLLKGPKGLGFSIAGGIGNQHIPGDNSIYITKIIEGGAAQKDGRLQIGDRLLAVNNTNLQDVRHEEAVASLKNTSDMVYLKVAKPGSIHLNDMYAPPDYASTFTALADNHISHNSSLGYLGAVESKVTYPAPPQVPPTRYSPIPRHMLAEEDFTREPRKIILHKGSTGLGFNIVGGEDGEGIFVSFILAGGPADLSGELRRGDRILSVNGVNLRNATHEQAAAALKRAGQSVTIVAQYRPEEYSRFESKIHDLREQMMNSSMSSGSGSLRTSEKRSLYVRALFDYDRTRDSCLPSQGLSFSYGDILHVINASDDEWWQARLVTPHGESEQIGVIPSKKRVEKKERARLKTVKFHARTGMIESNRDFPGLSDDYYGAKNLKGVTSNTSDSESSSKGQEDAILSYEPVTRQEIHYARPVIILGPMKDRVNDDLISEFPHKFGSCVPHTTRPRRDNEVDGQDYHFVVSREQMEKDIQDNKFIEAGQFNDNLYGTSIQSVRAVAERGKHCILDVSGNAIKRLQQAQLYPIAIFIKPKSIEALMEMNRRQTYEQANKIFDKAMKLEQEFGEYFTAIVQGDSLEEIYNKIKQIIEDQSGHYIWVPSPEKL | binds | binds
2 | SRC kinase signaling inhibitor 1 (protein, UniProt Q9QWI6 1-1250) MQPWQCLRRFALAWWERTAEGRARSPREEVGPRDPGGRGEPDPERSSPPMLSADDAEYPREYRTLGGGGGGGSGGRRFSNVGLVHTSERRHTVIAAQSLEALSGLQKADADRKRDAFMDHLKSKYPQHALALRGQQDRMREQVGGWTVDPVCLLSSLCSHLHGDSTPSGAGQPAQQPNYWSFKTRSSRHTQGAQPGLADQAAKLSYASAESLETMSEAELPLGFSRMNRFRQSLPLSRSASQTKLRSPGVLFLQFGEETRRVHITHEVSSLDTLHALIAHMFPQKLTMGMLKSPNTAILIKDEARNVFYELEDVRDIQDRSIIKIYRKEPLYAAFPGSHLTNGDLRREMVYASRESSPTRRLNNLSPASHLASSSPPPGLPSGLPSGLPSGSPSRSRLSYAGGRPPSYAGSPVHHAAERLGGAPTGQGVSPSPSAILERRDVKPDEDLAGKAGGMVLVKGEGLYADPYGLLHEGRLSLAAAAETHSHTRARAACTSGVPCALSAPTPLPRCSPTWRTRCTRRALAALYGDGYGFRLPPSSPQKLADVSAPSGGPPPPHSPYSGPPSRGSPVRQSFRKDSGSSSVFAESPGGKARSTGSASTAGAPPSELFPGPGERSLVGFGPPVPAKDTETRERMEAMEKQIASLTGLVQSALLRGSEPETPSEKVEGSNGAATPSAPVCGSGSKSSGATPVSGPPPPSASSTPAGQPTAVSRLQMQLHLRGLQNSASDLRGQLQQLRNVQLQNQESVRALLKPTEADVSMRVSEAARRQEDPLQRQRTLVEEERLRYLNDEELITQQLNDLEKSVEKIQRDVAHNHRLMPGPELEEKALVLKQLGETLTELKAHFPGLQSKMRVVLRVEVEAVKFLKEEPQRLDGLLKRCRGVTDTLAQIRRQVDEGMWPPPNNLLNQSPKKVAAETDFSKGLDFEIPPPSPPLNLHELSGPAEGTPLTPKSTNPTKCLDASSKRNTDKAVSVEAAERDWEEKRAALTQYSAKDINRLLEETQAELLKAIPDLDCASKTHPGPAPTPDHKPPKAPHGQKAAPRTEPSGRRGSDELTVPRYRTEKPSKSPPPPPPRRSFPSSHGLTTTRTGEVVVTSKKDSVFIKKAESEELEVQKPQVKLRRAVSEVVRPASTPPIMASAIKDEDDEERIIAELESGGSSVPPMKVVTPGASRLKAAQGPAGSPDKGKHGKQRTEYMRIQAQQQATKPSKEVSGPNETSSPGSEKPSGSRTSIPVLTSFGARNSSISF | binds | binds
3 | Latrophilin-1 (protein, UniProt Q80TR1 29-1466) GLPFGLMRRELACEGYPIELRCPGSDVIMVENANYGRTDDKICDADPFQMENVQCYLPDAFKIMSQRCNNRTQCVVVAGSDAFPDPCPGTYKYLEVQYDCVPYIFVCPGTLQKVLEPTSTHESEHQSGAWCKDPLQAGDRIYVMPWIPYRTDTLTEYASWEDYVAARHTTTYRLPNRVDGTGFVVYDGAVFYNKERTRNIVKYDLRTRIKSGETVINTANYHDTSPYRWGGKTDIDLAVDENGLWVIYATEGNNGRLVVSQLNPYTLRFEGTWETGYDKRSASNAFMVCGVLYVLRSVYVDDDSEAAGNRVDYAFNTNANREEPVSLAFPNPYQFVSSVDYNPRDNQLYVWNNYFVVRYSLEFGPPDPSAGPATSPPLSTTTTARPTPLTSTASPAATTPLRRAPLTTHPVGAINQLGPDLPPATAPAPSTRRPPAPNLHVSPELFCEPREVRRVQWPATQQGMLVERPCPKGTRGIASFQCLPALGLWNPRGPDLSNCTSPWVNQVAQKIKSGENAANIASELARHTRGSIYAGDVSSSVKLMEQLLDILDAQLQALRPIERESAGKNYNKMHKRERTCKDYIKAVVETVDNLLRPEALESWKDMNATEQVHTATMLLDVLEEGAFLLADNVREPARFLAAKQNVVLEVTVLNTEGQVQELVFPQEYPSENSIQLSANTIKQNSRNGVVKVVFILYNNLGLFLSTENATVKLAGEAGTGGPGGASLVVNSQVIAASINKESSRVFLMDPVIFTVAHLEAKNHFNANCSFWNYSERSMLGYWSTQGCRLVESNKTHTTCACSHLTNFAVLMAHREIYQGRINELLLSVITWVGIVISLVCLAICISTFCFLRGLQTDRNTIHKNLCINLFLAELLFLVGIDKTQYEVACPIFAGLLHYFFLAAFSWLCLEGVHLYLLLVEVFESEYSRTKYYYLGGYCFPALVVGIAAAIDYRSYGTEKACWLRVDNYFIWSFIGPVSFVIVVNLVFLMVTLHKMIRSSSVLKPDSSRLDNIKSWALGAIALLFLLGLTWAFGLLFINKESVVMAYLFTTFNAFQGVFIFVFHCALQKKVHKEYSKCLRHSYCCIRSPPGGTHGSLKTSAMRSNTRYYTGTQSRIRRMWNDTVRKQTESSFMAGDINSTPTLNRGTMGNHLLTNPVLQPRGGTSPYNTLIAESVGFNPSSPPVFNSPGSYREPKHPLGGREACGMDTLPLNGNFNNSYSLRSGDFPPGDGGPEPPRGRNLADAAAFEKMIISELVHNNLRGASGGAKGPPPEPPVPPVPGVSEDEAGGPGSADRAEIELLYKALEEPLLLPRAQSVLYQSDLDESESCTAEDGATSRPLSSPPGRDSLYASGANLRDSPSYPDSSPEGPNEALPPPPPAPPGPPEIYYTSRPPALVARNPLQGYYQVRRPSHEGYLAAPSLEGPGPDGDGQMQLVTSL | binds | binds
